The results in this text go back to PubChem BioAssay AID1508600 (Functional Genomics Laboratory (NCATS/FGL), 2020).

In all, about 53,000 sequences went through this assay and about 3,700 (7%) were called active.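 How the source made its calls: active means gene knockdowns whose robust z-score for IL-1 alpha signal is at least 2 or at most -2, so actives lie on both sides; inactive means the rest.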 Some of the results follow.

The assay is described as follows: Components of the Cytosolic LPS Sensing Pathway: Gene Identification via Genome-wide siRNA Screen.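 Further: robust z of the log signal after scaling to non-targeting control siRNA wells of the plate.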 The settings on record: RAW264.7 macrophages, IL-1a HTRF, actives lie on both sides, screened at 100 nM (by protocol), cells primed 5 h with Pam3CSK4 first. In a few lines:
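Mouse macrophage line RAW264.7 is transfected with siRNA (100 nM final), grown 48h, primed with TLR ligand Pam3CSK4 5 h and given intracellular LipidA 24 h. IL-1a in supernatant is read by HTRF and viability by luminescence.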
For the sequence GGUUGAACGGACAGAAAGGTT against Cpne3, the z-score was inactive: -0.731. Turning to CCUUGAUCGUGGGACCUUUTT against Slc16a14, the z-score is inactive: -0.304. As for GUCUGCAUCACCUUCACCATT against Lhb, the z-score was inactive: -0.301.

With CCCUGACUACCUCUACCAUTT against Rab44, the z-score was inactive: 0.366. For CCUUAUUUAGCUAAAGGAGTT against Rasl2-9, the z-score is inactive: -0.35.

Turning to GCAAAUUUACCUCGGUUUUTT against Olfr46, the z-score is inactive: 0.388. In the case of GCAAGUUCAUUAAACCAUATT against Rec8 it was inactive: 0.629. For the sequence GGGAAUGGCGCAGACAAUGTT against Mllt10, the z-score is inactive: 1.09. Turning to CCAAAUAUGUACUUCAUGGTT against Adipor1, the z-score is inactive: -0.147.

With GGACUACGUACAGUCCAUGTT against Eef1b2, the z-score is inactive: 0.482. For GGAACUUGACAUUGACAUATT against Klrb1b, the z-score is inactive: 0.0485.

On to GUCUGGAGCCCUGUAUUCCTT against Nradd, for which the z-score is inactive: -0.645. As to GCUGUUUGACUAAAUGAACTT against Tlr13, the z-score was inactive: -0.228. As to GGGUUGAAUCACAAUUUGUTT against Ube2e1, the z-score was inactive: 1.1. Turning to GGCCAAAUUCAACUAGUUCTT against Nudc, the z-score is inactive: -0.176. GGCCGUGUUAUCCAGAUUGTT against Prkcd: the z-score was inactive: 1.43. With GGAGAUGAAUUGAUGACCCTT against Strap, the z-score was inactive: -1.06.

For GGCACUAAGGAAGAAAAAATT against Iqcd, the z-score was inactive: -1.59. For GGGUAUUUUCACUGAAAGUTT against Ltbp3, the z-score is inactive: 0.431. With CCUUAAGGAACUAGGAUUCTT against Lgr5, the z-score was inactive: 1.05.

Consider CCAGCAACCUGAAAUACCUTT against Vmn2r66, for which the z-score was inactive: -0.852. As to GGCAAAGAGGCCAAAGCCATT against Zfp281, the z-score was inactive: -1.44. In the case of GGGCAUCAUCUAUAAAAAGTT against Avil it was inactive: -1.03; in that of CCCAGGACGAGACUUAAAUTT against Cachd1, inactive: -0.252; in that of CCUAUCAAAUUCAGAGGUUTT against Rinl, inactive: 0.294. On to GCAAAAAGGAGCGGUCCACTT against Plce1, for which the z-score is inactive: 1.13.

In the case of GGCAUUUGAGUGGACUGUUTT against Hirip3, the z-score is inactive: 0.421. As for CCUUAGGAAUUCACAAUCUTT against Mcpt8, the z-score is inactive: -0.504. In the case of GGAUUCCACAAUUUUUGUATT against Ncoa6, the z-score was inactive: -0.399. Regarding GGUGUUAUCUGCAUCAUCATT against Cyp4f15, the z-score was inactive: -1.42.

Turning to GGACAGGAAAGUCAAGUACTT against Txnrd2, the z-score was inactive: 0.282. Consider GGUGUCAUUCCAUAGUUCUTT against Ap4m1, for which the z-score is inactive: -0.48. Then “GGUCUUUUGAGCCAAUGGUTT against 4930470P17Rik”, with inactive: -0.956; and GCUUGAAGGUAUAAUUUCATT against Cldn12, with inactive: 0.296; and GCUUCAGUCGAAGUUCCUUTT against Zfp189, with inactive: 1.23. On to CGAAUAAAGCUUCAUUGUGTT against Atp5k, for which the z-score is inactive: 0.977. Then GGGUGUUGACAUAAAAAAUTT against Nsdhl, with inactive: 0.702; and GGUGAAUGUUGGAGACACATT against Fam131a, with inactive: -1.54. As to GGUUGUUCCCGGAAGAAUCTT against Rtn4r, the z-score is inactive: -0.874.

As for GGUUUUGCCAAGGACGCAGTT against Ngf, the z-score is inactive: 0.124.

Turning to CCUUACUCGAUUAAAAGAATT against Eif3e, the z-score is inactive: -1.38.

For GGGUUUCAACGGCUGUGACTT against Mef2d, the z-score is active: -2.73. Regarding GGUCAUUUCUGUCUUCUACTT against Olfr323, the z-score was inactive: 0.0432. For the sequence GCAACAAGAGGGCAGAAUGTT against Olfr518, the z-score is active: -2.22. For GCAACCAAAUCUAUUGUUCTT against Usp50, the z-score is inactive: 0.881. In the case of CGCAAGAUUGCAUUGUGUATT against Clec4a1 it was inactive: 0.0252; in that of CCUCGAGUUCGGAAACAGATT against Chd8, inactive: -1.06; in that of GGAGAAUGCUGAAACACCUTT against Rgs7bp, inactive: -0.295. Consider “GGUCAUAGAAUUCAUGUCCTT against E230016K23Rik”, for which the z-score is inactive: -1.28. In the case of GGAAGAAUGGAGCUGUACATT against Pepd it was inactive: -0.0255; in that of GCAAGAACUCGCUGAUCCATT against Mtor, inactive: -1.31; in that of GCAAACGUAUCAAGAGCAATT against Naca, inactive: 0.81.

As to GGAUCCAAUCAGGAGAAAGTT against Cers4, the z-score was inactive: -1.18.

Turning to GCAGGUAAAAUACAGGAGCTT against Gdi2, the z-score was inactive: 0.188. In the case of GAAUGCUCUGAGACUUUUATT against Cd300c2 it was active: -2.48; in that of GGGCGUAGAAACAGCAACUTT against Ushbp1, active: -2.14; in that of GCCUAAGAACAUGCUUUACTT against Cir1, inactive: 1.11.

In the case of GGUCCUCUCAGACAUGAAGTT against Pagr1a, the z-score was inactive: -0.237.

Regarding CCCUCAAUGCUGGAAAACCTT against Nol4, the z-score was inactive: -1.43.

Take CCUUUAAAGGGCAUAUUCATT against Clip1: the z-score was inactive: 1.46.

Consider GGAUUUCUUCUUAUGAUGATT against Khnyn, for which the z-score was inactive: -1.21. In the case of GCUGUUUAAAGAUAUGUGGTT against Nfx1, the z-score is inactive: -0.403. On to CCAUCCUAAGCAGAGUCACTT against Frg2f1, for which the z-score is inactive: -0.446. GGCCACCCUUUCAGAAAUGTT against Fut9: the z-score was inactive: -0.0689. As to GGGCUUUCUUGGUUUUAUCTT against Depp1, the z-score was inactive: -0.377. Turning to GGCAGCCCUUUUGCUAAGATT against Neurod1, the z-score is inactive: -0.0737.

Consider GGUGGAGGGUUUCAUCAAUTT against Alg3, for which the z-score is inactive: -0.88.

For GGUUGAACUCUUCUGGGAUTT against Pate14, the z-score is inactive: 0.135. As to CCACCACUCUAUCAGAGGUTT against Evx1, the z-score was inactive: -0.669.

For the sequence GGAUGGCGAUAAGAAGAUUTT against C3, the z-score was inactive: -0.853. On to GGAUGAUGAGUUUUUCCAUTT against Tmem40, for which the z-score was inactive: -0.286. As to GCUUCUAUGAUCGUACGGATT against Nid1, the z-score was inactive: 0.812. As for GGAAGAGGUGCAGCAAAUUTT against Dcaf11, the z-score was inactive: 0.437. For GCGAAUAUCCAACCUAUCUTT against Itgb7, the z-score was inactive: -0.687. For the sequence GGUCAAAAGAAACAGGUGUTT against Sfi1, the z-score is inactive: 0.13. For the sequence GGCUUGCUAGAUAACAUCATT against Timm44, the z-score was inactive: 0.744. In the case of CCCUUACUUAGUCUCCACUTT against Olig1, the z-score was inactive: -0.025.

For GGAAUUUCACUAACCUUAGTT against Tert, the z-score was inactive: 1.55. In the case of GGAUCGAGUUUGGUGUAGATT against Usp10, the z-score was inactive: -1.39. GGUGAACACGUUUGUAAUGTT against Pcnx: the z-score was inactive: 0.341. Turning to GGCAAAGCAACUUUAUGAATT against Aste1, the z-score was inactive: -0.465. For GGGCUAGAUGAAUUUUUGATT against Aplnr, the z-score was inactive: -0.181.

Turning to CGGGAACAAAUCUAAAAUGTT against Arhgap28, the z-score was inactive: 0.723. Then CCGCCUACGUAAACACCAATT against Tnk2, with inactive: -0.104. In the case of GGAUUUGGUGAUCCACUGGTT against Hecw1, the z-score is inactive: 0.0465. On to GCCAGUUAUGAGCAACACCTT against Slc46a1, for which the z-score was active: -2.14.

As to GGUAAAGAAAUCCUUCAAATT against Syt6, the z-score is active: 2.1.

CGAUUAUCGGCCCAGCAAATT against Bmp1: the z-score was inactive: 1.01. Take GGAAAAUCAAGUGCAAACUTT against Cep43: the z-score was inactive: 0.122. GGAAGAUUAUUUUCUUACCTT against Dync2li1: the z-score was inactive: 0.558.

With GCAAAGUUACACAUCAAAGTT against Agtr1a, the z-score is inactive: 1.02. In the case of GGCAGAGAUUAAGAACUGUTT against Adgre5 it was inactive: 0.243. Regarding CUAGUAGGGUCAGAAUUUUTT against Olfr329, the z-score was inactive: -0.0244.

With CCUCUUAGAUCAGGAUUAUTT against Usp37, the z-score was inactive: 0.991. For the sequence GGAUGAAUGGAAUUUACUGTT against Fbh1, the z-score was inactive: 0.406.

GGAAAGCACAUCCUCUUUGTT against Gpx6: the z-score is inactive: 1.02.

With GCCACGCAAUAAAGCAUCUTT against Sars, the z-score is inactive: -0.284. Regarding GCACCAAAAUACACGAAAGTT against Ptpdc1, the z-score is inactive: -1.11.

In the case of GUUCCGACUGAACUUGUAUTT against Psmb3, the z-score is active: -2.55. On to GGUUGUAAUAGCCUUAGCCTT against Rassf8, for which the z-score is active: -2.87.

As for GGUGUGUGACUUUUUUUGUTT against Ube2d1, the z-score is inactive: 0.329. In the case of GGAUGUCAUUAAACCUAAGTT against Rbm34, the z-score is inactive: -1.12.

Turning to GAGCAUCUCAAGGAUCUUCTT against Syngr4, the z-score was inactive: 0.661. Consider CCAUGACAAAUUCAAGCAGTT against Atf1, for which the z-score was inactive: 0.254.

For the sequence GGCUAUUAAAGAUACAGCGTT against Sfxn4, the z-score was inactive: 0.162.

For AUGCUUUUUGGAGCCAUAUTT against Olfr307, the z-score is active: 3.07. Take CGUGGUGAUAUUGGAUUAATT against Myef2: the z-score was inactive: -0.0288.
